Assay results: US7998971B2, “Combinations containing a 4-acylaminopyridine derivative” (BrainCells Inc., priority 2006, dated 2011)
Like-named read-outs stand apart in the source and are kept apart here.

Tested on: human neural stem cells (hNSCs)
Assay: Neuronal differentiation of human neural stem cells (TUJ-1 staining, concentration response curves)
Type: cell-based
Details: Neural stem cell, agent alone
From the text: Mitogen-free test media with a positive control for neuronal differentiation was used along with basal media without growth factors as a negative control. […]

| EC50 (extrapolated, read-out: EC50 of neuronal differentiation, agent used alone, estimated by extrapolation of the observed data) | EC50 (percentage of neuronal positive control, basal media subtracted, read-out: EC50 of neuronal differentiation, agent used alone) | Structure (SMILES) |
| --- | --- | --- |
| 66 µM | – | CC(=O)Nc1nnc(S(N)(=O)=O)s1 [acetazolamide] |
| – | 1.5 µM | CC/C(=C(\c1ccccc1)c1ccc(OCCN(C)C)cc1)c1ccccc1 [tamoxifen] |
